Screen size: about 310,000 compounds; about 17,000 (5.5%) were called active. The inconclusive results got no clear call from the source; some entries with a clear call stand among them for comparison. Calls follow the shape of the dose curve; as a rule, active = well fitted inhibition curve with a large enough effect; inconclusive = small, poorly fitted or top-dose-only effect, or effect the other way; inactive = no such curve, though single readings can be large or run the other way. Where the call is inconclusive, the potency comes from a doubtful curve fit.
Target: Nuclear receptor ROR-gamma (Mus musculus) (UniProt P51450)
Experiment: qHTS for inhibitors of ROR gamma transcriptional activity; also: nearly all actives have a fitted effect of over 60% in size
Conditions: Drosophila S2 Gal4-RORgamma UAS-luciferase reporter, 20 h; activity change, negative = inhibition: at 53.6 µM (top of the series)
Procedure, shortened: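 Compounds are pin-transferred onto Drosophila Schneider cells expressing a copper-inducible Gal4–ROR gamma transactivation domain fusion. After 1 hr, copper sulfate is added to 700 uM final; luciferase is read 20 hr later.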
% is scaled to controls: 0 for no effect and ±100 for the full control effect; potency is read from the fitted curve at half-maximal effect.

By UniProt entry, the sequences of proteins in these tests, tags left out. Where a name states a change or a piece, a line headed by the entry shows the natural chain unless it says otherwise.
UniProt P51450: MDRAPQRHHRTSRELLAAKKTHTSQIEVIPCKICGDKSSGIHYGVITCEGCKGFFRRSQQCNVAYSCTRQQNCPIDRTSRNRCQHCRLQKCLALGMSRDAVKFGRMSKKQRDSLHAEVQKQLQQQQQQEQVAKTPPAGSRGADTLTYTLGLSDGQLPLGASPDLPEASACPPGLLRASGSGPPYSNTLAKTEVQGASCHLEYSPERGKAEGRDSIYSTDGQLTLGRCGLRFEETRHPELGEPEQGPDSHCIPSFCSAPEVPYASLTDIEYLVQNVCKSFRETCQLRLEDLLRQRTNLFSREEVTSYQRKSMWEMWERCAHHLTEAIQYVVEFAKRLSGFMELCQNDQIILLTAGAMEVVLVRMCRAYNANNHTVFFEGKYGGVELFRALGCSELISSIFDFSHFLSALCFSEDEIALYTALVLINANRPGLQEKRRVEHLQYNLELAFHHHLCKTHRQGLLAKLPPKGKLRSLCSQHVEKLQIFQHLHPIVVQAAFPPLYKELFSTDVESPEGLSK

| Structure (SMILES) | activity change, negative = inhibition | Potency |
| --- | --- | --- |
| COc1ccc(N(CC(O)CN2CCOCC2)S(=O)(=O)c2ccccc2)cc1 (stereo not given) | inactive: -5.31% | – |
| COc1cccc(OCCn2cc(C(C)=O)c3ccccc32)c1 | – | inconclusive: 0.398 µM [activator, single point] |
| Cc1cc(Cl)ccc1OCC(=O)NCCCN1CCOCC1 | – | inconclusive: 5.01 µM [inhibitor, full curve] |
| COc1ccc(C(=O)c2ccc(N(C)C)cc2)c2ccccc12 | – | inconclusive: 2.82 µM [inhibitor, single point] |
| O=C(O)c1ccc(N/N=C/c2c[nH]c3ccccc23)cc1 | – | active: 0.0355 µM |
| N#Cc1cccc(NC(=O)N2CC[C@@]3(CCCN(C(=O)c4cc(C(F)(F)F)cc(C(F)(F)F)c4)C3)C2)c1 | inactive: 34.7% | – |
| CCOC(=O)C1=C(C)NC(SCC(N)=O)=C(C#N)C1c1ccccc1 (stereo not given) | inactive: -34.7% | – |
| C=CCN1C(=S)CC(c2ccccc2)=Nc2ccccc21 | – | inconclusive: 3.98 µM [inhibitor, partial curve] |
| COc1cc2c(cc1OC)-c1nc3ccccc3c(=O)n1C(C)(C)C2 | – | inconclusive: 0.224 µM [inhibitor, full curve, poor fit] |
| COc1ccc(/C=C2\CCCC3C2=NN(C(=O)CSc2ncn[nH]2)C3c2ccc(OC)cc2)cc1 (stereo not given) | inactive: 39.6% | – |
| CCn1c(Cc2ccccc2)nnc1SCC(=O)Nc1ccc(OC)cc1 | – | inconclusive: 0.447 µM [activator, single point] |
| COc1ccc(Cc2nc3ccc(C(=O)NCCCSC)cc3o2)cc1OC | – | inconclusive: 15.8 µM [activator, partial curve] |
| NNC(=S)NCc1cccnc1 | – | active: 8.91 µM |
| Cc1cc(C)c(C#N)c(SCc2cc3c(cc2Cl)OCO3)n1 | – | inconclusive: 11.2 µM [activator, partial curve] |
| COc1ccc(/C=N/NC(=S)NC2CCS(=O)(=O)C2)cc1OC (stereo not given) | – | active: 15.8 µM |
| Cc1cc(C)c(NC(=O)c2cc(S(=O)(=O)N3CCOCC3)ccc2F)c(C)c1 | inactive: 1.3% | – |
| CC(=O)c1cn(CCOc2ccccc2C)c2ccccc12 | – | inconclusive: 2.82 µM [activator, partial curve] |
| COC(=O)c1cccc(NC(=O)C2COc3ccccc3O2)c1 (stereo not given) | – | inconclusive: 11.2 µM [activator, partial curve] |
| COC(=O)CSc1[nH]c2ccc(F)cc2c1[N+](=O)[O-] | inactive: -32.7% | – |
| Cc1scc(C(=O)NNC(=S)NCC2CCCO2)c1C (stereo not given) | – | active: 4.47 µM |
| CCOC(=O)N1CCN(C(=O)CSc2nnc(-c3cccc(Cl)c3)o2)CC1 | – | inconclusive: 6.31 µM [inhibitor, single point] |
| COc1cc2c(cc1OC)C(C)N(C(=O)CCc1c[nH]c3ccccc13)CC2 (stereo not given) | inactive: 0.613% | – |
| CCOC(=O)c1ccc(NC(=O)NCc2cccnc2)cc1 | – | inconclusive: 14.1 µM [activator, single point] |
| COc1ccc(S(=O)(=O)CCC(=O)N2CCN(c3ccccc3F)CC2)cc1 | inactive: 35.5% | – |
| CSc1cccc(NC(=S)N2CCC(N(C)C3CCCC3)CC2)c1 | inactive: -14.1% | – |

| Structure (SMILES) | activity change, negative = inhibition | Potency |
| --- | --- | --- |
| COC(=O)c1c(-c2cccnc2)csc1NC(=O)c1cc(C)on1 | – | inconclusive: 0.1 µM [activator, full curve, poor fit] |
| Nc1c(S(=O)(=O)c2ccccc2)c2nc3ccccc3nc2n1Cc1ccco1 | – | inconclusive: 35.5 µM [inhibitor, single point] |
| O=C(N/N=C/C(Br)=C/c1ccccc1)c1ccc([N+](=O)[O-])cc1 | – | active: 12.6 µM |
| CCCCC(=O)Nc1sc2c(c1C(N)=O)CCC2 | – | inconclusive: 15.8 µM [activator, single point] |
| CCCC(=O)Nc1ccc(S(=O)(=O)N2CCCC2)cc1 | inactive: 16.3% | – |
| COc1cccc2c1cc1c(=O)n(CC(=O)NCCCN3CCN(C)CC3)nc(C)n12 | inactive: -17% | – |
| CCOC(=O)c1sc(NC(=O)Nc2ccc(Cl)cc2)cc1C | – | inconclusive: 2.82 µM [activator, single point] |
| CCc1c(C(=O)N/N=C/c2ccco2)nnn1-c1nonc1N | – | inconclusive: 7.08 µM [activator, partial curve] |
| CCOc1ccccc1OCCCCCc1c(C)n[nH]c1C | – | inconclusive: 20 µM [inhibitor, single point] |
| COC(=O)c1cnn(-c2ccccc2)c1C(OC)OC | – | inconclusive: 0.501 µM [inhibitor, full curve, poor fit] |
| COCCn1nnnc1CN(CCCN1CCOCC1)Cc1cc2c(C)ccc(C)c2[nH]c1=O | – | inconclusive: 12.6 µM [inhibitor, partial curve, poor fit] |
| CCCOC(=O)c1ccc(O)c(OC)c1 | inactive: -0.299% | – |
| COC(=O)c1ccccc1NC(=O)C12CC3CC(C1)CC(n1cnc(Cl)n1)(C3)C2 | – | inconclusive: 0.141 µM [activator, single point] |
| COc1cc2nc(N3CCN(C(=O)[C@@H]4CCCO4)CC3)nc(N)c2cc1OC | – | inconclusive: 35.5 µM [inhibitor, single point] |
| CC(CCc1ccc(O)cc1)NC(c1ccccc1)c1ccc(Cl)cc1 (stereo not given) | – | inconclusive: 17.8 µM [inhibitor, single point] |
| CC(=O)N(\C=C/C=C/C=C1\Sc2ccccc2C1=O)c1ccccc1 | inactive: -27% | – |
| S=c1[nH]nc(-c2ccco2)n1-c1ccc(Cl)cc1 | – | active: 8.91 µM |
| O=C(COn1nnc2ccc(C(F)(F)F)cc21)Nc1nnc(-c2ccccc2)o1 | – | active: 7.08 µM |
| COc1cccc(-n2nnnc2SCC(=O)NCc2ccc3c(c2)OCO3)c1 | inactive: 17.5% | – |
| Cc1ccc(C(=O)Nc2nccs2)cc1 | – | inconclusive: 25.1 µM [inhibitor, single point] |
| O=C(c1cccc([N+](=O)[O-])c1)N1CCN(c2ccc(Cl)cc2)CC1 | – | inconclusive: 12.6 µM [activator, partial curve] |
| CC(Oc1ccc2ccccc2c1)C(=O)NNC(=S)NC(=O)c1ccco1 (stereo not given) | – | inconclusive: 10 µM [inhibitor, partial curve] |
| COc1ccc(NC(=O)N2CCCC3(CCN(S(C)(=O)=O)CC3)C2)cc1 | inactive: -2.39% | – |
| O=C(Nc1ccccc1)C(Cl)C(=O)c1ccccc1 (stereo not given) | – | inconclusive: 35.5 µM [inhibitor, single point] |
| Cn1cc([N+](=O)[O-])c(C(=O)NCc2cc3cc(Cl)ccc3[nH]2)n1 | – | inconclusive: 10 µM [activator, partial curve] |

| Structure (SMILES) | activity change, negative = inhibition | Potency |
| --- | --- | --- |
| COC(=O)c1ccc(/C=N/OCC(=O)NC2CCCC(C)C2C)cc1 (stereo not given) | inactive: 23.9% | – |
| O=C(Nc1ccc2c(c1)OCCO2)C1CCN(S(=O)(=O)c2cccc3nsnc23)CC1 | – | inconclusive: 6.31 µM [activator, single point] |
| CNc1nc(C)cc(C)c1S(=O)(=O)c1ccc(Cl)cc1 | – | inconclusive: 35.5 µM [activator, single point] |
| CCN(CC)CCn1c(OC)cc(=O)[nH]c1=O | – | inconclusive: 12.6 µM [inhibitor, partial curve, poor fit] |
| CS(=O)(=O)N(CC(=O)N1CCN(c2ccc(F)cc2)CC1)c1cccc(Cl)c1 | – | inconclusive: 15.8 µM [activator, partial curve] |
| COC(=O)c1nnn(-c2cc(Cl)cc(Cl)c2)c1C(=O)OC | inactive: 5.13% | – |
| Cc1ccc(OCC(=O)OCC(=O)Nc2sccc2C(N)=O)cc1C | – | inconclusive: 3.98 µM [activator, partial curve] |
| O=C1NC(=O)/C(=C\c2ccc(OCc3cccc(C(=O)O)c3)c(Cl)c2)N1 | – | inconclusive: 31.6 µM [inhibitor, single point] |
| c1ccc(Cc2ccc(OCCn3cncn3)cc2)cc1 | – | inconclusive: 35.5 µM [activator, single point] |
| O=C(CCc1nnc(Cc2cccc(C(F)(F)F)c2)o1)NCCc1ccccc1F | – | inconclusive: 11.2 µM [activator, single point] |
| Cn1c(=O)c2ncn(CC(=O)Nc3cccc(-c4nc5ccccc5s4)c3)c2n(C)c1=O | inactive: 4.17% | – |
| CC(=O)N(CCC(c1ccco1)C(C)C)Cc1ccc(Cl)cc1 (stereo not given) | – | inconclusive: 17.8 µM [activator, single point] |
| CCc1ccc(NC(=O)CCc2nc3cccnc3n2Cc2ccc(OC)cc2)cc1 | – | inconclusive: 11.2 µM [inhibitor, single point] |
| COc1ccc2cc3cc(C(=O)NC4CC4)sc3nc2c1 | – | inconclusive: 15.8 µM [inhibitor, single point] |
| Cc1c(N/N=C(\C#N)C(=O)c2ccc(Cl)cc2)c(=O)n(-c2ccccc2)n1C | – | active: 7.08 µM |
| COCCn1c(C(=O)N2CCCC2)cc2c1C[C@H]1CN(C(=O)c3ccccc3)[C@@](Cc3ccc(OC)cc3)(C(=O)OC)[C@@H]21 | inactive: 6.88% | – |
| Cc1nc(C)c(-c2csc(Nc3ccc(N)cc3)n2)s1 | inactive: 13.6% | – |
| COc1ccc(O)c(/C=N/NC(=O)CSc2nnc(C)n2-c2ccccc2)c1 | – | active: 7.94 µM |
| O=C(c1ccc(S(=O)(=O)Nc2ccc(F)cc2)cc1)N1CCN(C(=O)c2ccco2)CC1 | inactive: -27.9% | – |
| CCc1nnc(NC(=O)CSc2ncc(-c3ccccc3)n2CC)s1 | – | active: 11.2 µM |
| COc1ccc(S(=O)(=O)Nc2cccc(N(C)S(C)(=O)=O)c2)cc1C | – | inconclusive: 11.2 µM [activator, partial curve] |
| O=C(Cc1ccccc1)c1nnc(-c2ccccc2)o1 | inactive: -4.63% | – |
| CCOc1ccc(-c2cn(-c3cccc(SC)c3)c(=O)[nH]2)cc1 | inactive: 7.03% | – |
| COc1ccccc1NC(=O)Nc1ccc(F)c(F)c1 | – | inconclusive: 14.1 µM [activator, single point] |
| CCOC(=O)C1CCCN(C(=O)Nc2cccc(Cl)c2)C1 (stereo not given) | – | inconclusive: 12.6 µM [activator, single point] |

17 entries out of the list, arranged by SMILES length, descending.

| Structure (SMILES) | activity change, negative = inhibition | Potency |
| --- | --- | --- |
| COCCn1c(C(=O)N2CCCC2)cc2c1C[C@H]1CN(C(=O)c3ccccc3)[C@@](Cc3ccc(OC)cc3)(C(=O)OC)[C@@H]21 | inactive: 6.88% | – |
| O=C(c1ccc(S(=O)(=O)Nc2ccc(F)cc2)cc1)N1CCN(C(=O)c2ccco2)CC1 | inactive: -27.9% | – |
| Cn1c(=O)c2ncn(CC(=O)Nc3cccc(-c4nc5ccccc5s4)c3)c2n(C)c1=O | inactive: 4.17% | – |
| Cc1c(N/N=C(\C#N)C(=O)c2ccc(Cl)cc2)c(=O)n(-c2ccccc2)n1C | – | active: 7.08 µM |
| CS(=O)(=O)N(CC(=O)N1CCN(c2ccc(F)cc2)CC1)c1cccc(Cl)c1 | – | inconclusive: 15.8 µM [activator, partial curve] |
| COc1ccc(O)c(/C=N/NC(=O)CSc2nnc(C)n2-c2ccccc2)c1 | – | active: 7.94 µM |
| CCc1ccc(NC(=O)CCc2nc3cccnc3n2Cc2ccc(OC)cc2)cc1 | – | inconclusive: 11.2 µM [inhibitor, single point] |
| CCOc1ccc(-c2cn(-c3cccc(SC)c3)c(=O)[nH]2)cc1 | inactive: 7.03% | – |
| COC(=O)c1ccc(/C=N/OCC(=O)NC2CCCC(C)C2C)cc1 (stereo not given) | inactive: 23.9% | – |
| COC(=O)c1nnn(-c2cc(Cl)cc(Cl)c2)c1C(=O)OC | inactive: 5.13% | – |
| CCc1nnc(NC(=O)CSc2ncc(-c3ccccc3)n2CC)s1 | – | active: 11.2 µM |
| CNc1nc(C)cc(C)c1S(=O)(=O)c1ccc(Cl)cc1 | – | inconclusive: 35.5 µM [activator, single point] |
| CCOC(=O)C1CCCN(C(=O)Nc2cccc(Cl)c2)C1 (stereo not given) | – | inconclusive: 12.6 µM [activator, single point] |
| COc1ccc2cc3cc(C(=O)NC4CC4)sc3nc2c1 | – | inconclusive: 15.8 µM [inhibitor, single point] |
| O=C(Cc1ccccc1)c1nnc(-c2ccccc2)o1 | inactive: -4.63% | – |
| COc1ccccc1NC(=O)Nc1ccc(F)c(F)c1 | – | inconclusive: 14.1 µM [activator, single point] |
| CCN(CC)CCn1c(OC)cc(=O)[nH]c1=O | – | inconclusive: 12.6 µM [inhibitor, partial curve, poor fit] |

From PubChem BioAssay AID2551 (National Center for Advancing Translational Sciences (NCATS), 2010)
